The list shows a part of the results.

The chains behind the UniProt entries cited, without tags or fusion partners. Where a name states a change or a piece, a line headed by the entry shows the natural chain unless it says otherwise.
UniProt Q14839: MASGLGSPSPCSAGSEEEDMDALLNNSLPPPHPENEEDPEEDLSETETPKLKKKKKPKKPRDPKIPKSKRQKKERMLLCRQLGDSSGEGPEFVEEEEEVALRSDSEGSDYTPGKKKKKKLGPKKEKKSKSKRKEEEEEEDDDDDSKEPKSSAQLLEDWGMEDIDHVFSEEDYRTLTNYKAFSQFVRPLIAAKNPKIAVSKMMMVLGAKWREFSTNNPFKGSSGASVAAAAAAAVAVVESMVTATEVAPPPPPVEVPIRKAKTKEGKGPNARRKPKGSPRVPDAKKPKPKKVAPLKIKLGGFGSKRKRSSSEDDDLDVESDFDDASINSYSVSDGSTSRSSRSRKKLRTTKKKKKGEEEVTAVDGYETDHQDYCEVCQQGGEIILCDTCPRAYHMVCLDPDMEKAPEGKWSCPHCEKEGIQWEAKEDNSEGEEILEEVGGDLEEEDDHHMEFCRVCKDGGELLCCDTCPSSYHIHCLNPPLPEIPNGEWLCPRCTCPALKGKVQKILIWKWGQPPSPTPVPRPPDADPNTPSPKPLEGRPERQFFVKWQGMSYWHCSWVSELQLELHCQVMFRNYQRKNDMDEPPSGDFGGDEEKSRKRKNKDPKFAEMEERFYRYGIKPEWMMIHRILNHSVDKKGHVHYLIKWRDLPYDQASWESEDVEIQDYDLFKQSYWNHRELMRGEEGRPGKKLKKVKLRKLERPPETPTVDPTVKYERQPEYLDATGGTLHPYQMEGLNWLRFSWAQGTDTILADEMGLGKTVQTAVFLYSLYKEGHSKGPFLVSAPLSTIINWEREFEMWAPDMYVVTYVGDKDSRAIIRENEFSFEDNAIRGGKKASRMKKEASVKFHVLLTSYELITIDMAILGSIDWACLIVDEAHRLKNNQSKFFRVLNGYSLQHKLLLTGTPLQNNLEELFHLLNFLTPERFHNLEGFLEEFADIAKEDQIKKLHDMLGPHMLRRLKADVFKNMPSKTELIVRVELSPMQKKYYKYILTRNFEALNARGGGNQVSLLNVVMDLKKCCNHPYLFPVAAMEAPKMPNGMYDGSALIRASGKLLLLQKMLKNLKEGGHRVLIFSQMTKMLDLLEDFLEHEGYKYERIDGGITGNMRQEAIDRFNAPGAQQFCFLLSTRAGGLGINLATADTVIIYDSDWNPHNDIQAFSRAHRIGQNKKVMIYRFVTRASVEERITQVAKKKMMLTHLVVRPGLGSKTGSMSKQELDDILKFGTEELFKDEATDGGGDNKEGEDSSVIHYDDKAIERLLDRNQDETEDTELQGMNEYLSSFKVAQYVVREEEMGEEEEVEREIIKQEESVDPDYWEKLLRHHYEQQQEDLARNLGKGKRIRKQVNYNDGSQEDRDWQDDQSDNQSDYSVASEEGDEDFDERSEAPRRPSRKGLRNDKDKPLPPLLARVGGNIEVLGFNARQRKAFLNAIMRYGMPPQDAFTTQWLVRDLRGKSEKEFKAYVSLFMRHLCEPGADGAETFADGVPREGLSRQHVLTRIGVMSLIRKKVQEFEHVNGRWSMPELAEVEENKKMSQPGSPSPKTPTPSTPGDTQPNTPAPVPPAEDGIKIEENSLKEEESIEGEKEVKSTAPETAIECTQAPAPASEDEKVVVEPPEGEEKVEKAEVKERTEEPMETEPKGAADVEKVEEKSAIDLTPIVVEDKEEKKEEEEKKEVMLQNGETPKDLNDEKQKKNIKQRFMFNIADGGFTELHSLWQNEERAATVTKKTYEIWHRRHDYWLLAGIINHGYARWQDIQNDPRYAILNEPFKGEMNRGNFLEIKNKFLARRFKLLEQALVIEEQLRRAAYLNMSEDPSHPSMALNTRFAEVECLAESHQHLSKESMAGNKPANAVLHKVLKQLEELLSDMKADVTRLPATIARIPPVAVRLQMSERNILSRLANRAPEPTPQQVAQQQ
UniProt Q13111, whole entry, looked up: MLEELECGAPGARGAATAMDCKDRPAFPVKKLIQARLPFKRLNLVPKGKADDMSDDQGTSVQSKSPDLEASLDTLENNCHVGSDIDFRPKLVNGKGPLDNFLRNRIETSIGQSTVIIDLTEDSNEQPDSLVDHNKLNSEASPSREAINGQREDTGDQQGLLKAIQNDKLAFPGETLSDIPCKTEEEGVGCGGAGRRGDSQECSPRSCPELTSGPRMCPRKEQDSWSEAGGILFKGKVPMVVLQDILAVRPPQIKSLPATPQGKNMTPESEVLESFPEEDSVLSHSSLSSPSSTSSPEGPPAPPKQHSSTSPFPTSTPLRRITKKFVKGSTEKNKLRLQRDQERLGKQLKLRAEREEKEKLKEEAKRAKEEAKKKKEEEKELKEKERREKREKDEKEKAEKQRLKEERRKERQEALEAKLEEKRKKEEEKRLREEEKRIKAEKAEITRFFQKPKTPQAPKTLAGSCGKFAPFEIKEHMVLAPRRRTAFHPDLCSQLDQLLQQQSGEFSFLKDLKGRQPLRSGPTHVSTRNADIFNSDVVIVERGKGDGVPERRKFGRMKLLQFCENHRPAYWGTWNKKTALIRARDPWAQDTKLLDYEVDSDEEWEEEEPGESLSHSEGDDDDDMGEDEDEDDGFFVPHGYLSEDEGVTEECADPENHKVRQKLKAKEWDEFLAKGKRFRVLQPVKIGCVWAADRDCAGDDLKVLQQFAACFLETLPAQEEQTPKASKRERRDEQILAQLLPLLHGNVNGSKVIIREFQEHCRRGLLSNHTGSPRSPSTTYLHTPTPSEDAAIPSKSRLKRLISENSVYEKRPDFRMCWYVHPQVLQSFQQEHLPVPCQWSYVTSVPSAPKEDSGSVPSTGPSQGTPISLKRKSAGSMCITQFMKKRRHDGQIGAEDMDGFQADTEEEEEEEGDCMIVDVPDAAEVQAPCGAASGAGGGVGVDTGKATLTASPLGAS
UniProt Q92903: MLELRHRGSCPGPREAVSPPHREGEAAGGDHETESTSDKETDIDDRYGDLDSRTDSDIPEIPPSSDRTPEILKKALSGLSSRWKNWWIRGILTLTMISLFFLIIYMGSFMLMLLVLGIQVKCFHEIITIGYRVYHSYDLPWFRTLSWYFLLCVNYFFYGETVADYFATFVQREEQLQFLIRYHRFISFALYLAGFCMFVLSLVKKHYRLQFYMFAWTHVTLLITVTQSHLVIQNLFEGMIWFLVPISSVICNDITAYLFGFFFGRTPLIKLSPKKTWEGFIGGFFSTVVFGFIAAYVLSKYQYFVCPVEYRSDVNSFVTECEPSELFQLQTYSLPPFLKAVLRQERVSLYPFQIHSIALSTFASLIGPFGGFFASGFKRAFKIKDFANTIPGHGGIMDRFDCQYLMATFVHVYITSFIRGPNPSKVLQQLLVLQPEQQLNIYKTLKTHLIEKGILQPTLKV
UniProt O95319: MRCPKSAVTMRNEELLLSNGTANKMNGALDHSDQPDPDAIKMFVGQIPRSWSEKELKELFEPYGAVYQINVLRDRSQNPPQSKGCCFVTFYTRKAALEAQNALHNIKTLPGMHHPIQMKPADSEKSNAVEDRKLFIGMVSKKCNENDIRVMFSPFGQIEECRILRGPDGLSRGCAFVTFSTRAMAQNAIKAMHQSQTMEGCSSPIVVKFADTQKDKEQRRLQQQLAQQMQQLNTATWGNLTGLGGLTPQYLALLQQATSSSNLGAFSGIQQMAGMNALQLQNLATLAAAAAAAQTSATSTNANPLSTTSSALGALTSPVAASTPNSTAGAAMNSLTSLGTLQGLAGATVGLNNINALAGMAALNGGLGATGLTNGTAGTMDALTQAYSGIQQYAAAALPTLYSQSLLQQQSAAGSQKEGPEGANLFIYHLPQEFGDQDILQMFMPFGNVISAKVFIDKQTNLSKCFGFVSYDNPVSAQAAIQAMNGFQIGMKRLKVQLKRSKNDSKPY
UniProt Q8TD26: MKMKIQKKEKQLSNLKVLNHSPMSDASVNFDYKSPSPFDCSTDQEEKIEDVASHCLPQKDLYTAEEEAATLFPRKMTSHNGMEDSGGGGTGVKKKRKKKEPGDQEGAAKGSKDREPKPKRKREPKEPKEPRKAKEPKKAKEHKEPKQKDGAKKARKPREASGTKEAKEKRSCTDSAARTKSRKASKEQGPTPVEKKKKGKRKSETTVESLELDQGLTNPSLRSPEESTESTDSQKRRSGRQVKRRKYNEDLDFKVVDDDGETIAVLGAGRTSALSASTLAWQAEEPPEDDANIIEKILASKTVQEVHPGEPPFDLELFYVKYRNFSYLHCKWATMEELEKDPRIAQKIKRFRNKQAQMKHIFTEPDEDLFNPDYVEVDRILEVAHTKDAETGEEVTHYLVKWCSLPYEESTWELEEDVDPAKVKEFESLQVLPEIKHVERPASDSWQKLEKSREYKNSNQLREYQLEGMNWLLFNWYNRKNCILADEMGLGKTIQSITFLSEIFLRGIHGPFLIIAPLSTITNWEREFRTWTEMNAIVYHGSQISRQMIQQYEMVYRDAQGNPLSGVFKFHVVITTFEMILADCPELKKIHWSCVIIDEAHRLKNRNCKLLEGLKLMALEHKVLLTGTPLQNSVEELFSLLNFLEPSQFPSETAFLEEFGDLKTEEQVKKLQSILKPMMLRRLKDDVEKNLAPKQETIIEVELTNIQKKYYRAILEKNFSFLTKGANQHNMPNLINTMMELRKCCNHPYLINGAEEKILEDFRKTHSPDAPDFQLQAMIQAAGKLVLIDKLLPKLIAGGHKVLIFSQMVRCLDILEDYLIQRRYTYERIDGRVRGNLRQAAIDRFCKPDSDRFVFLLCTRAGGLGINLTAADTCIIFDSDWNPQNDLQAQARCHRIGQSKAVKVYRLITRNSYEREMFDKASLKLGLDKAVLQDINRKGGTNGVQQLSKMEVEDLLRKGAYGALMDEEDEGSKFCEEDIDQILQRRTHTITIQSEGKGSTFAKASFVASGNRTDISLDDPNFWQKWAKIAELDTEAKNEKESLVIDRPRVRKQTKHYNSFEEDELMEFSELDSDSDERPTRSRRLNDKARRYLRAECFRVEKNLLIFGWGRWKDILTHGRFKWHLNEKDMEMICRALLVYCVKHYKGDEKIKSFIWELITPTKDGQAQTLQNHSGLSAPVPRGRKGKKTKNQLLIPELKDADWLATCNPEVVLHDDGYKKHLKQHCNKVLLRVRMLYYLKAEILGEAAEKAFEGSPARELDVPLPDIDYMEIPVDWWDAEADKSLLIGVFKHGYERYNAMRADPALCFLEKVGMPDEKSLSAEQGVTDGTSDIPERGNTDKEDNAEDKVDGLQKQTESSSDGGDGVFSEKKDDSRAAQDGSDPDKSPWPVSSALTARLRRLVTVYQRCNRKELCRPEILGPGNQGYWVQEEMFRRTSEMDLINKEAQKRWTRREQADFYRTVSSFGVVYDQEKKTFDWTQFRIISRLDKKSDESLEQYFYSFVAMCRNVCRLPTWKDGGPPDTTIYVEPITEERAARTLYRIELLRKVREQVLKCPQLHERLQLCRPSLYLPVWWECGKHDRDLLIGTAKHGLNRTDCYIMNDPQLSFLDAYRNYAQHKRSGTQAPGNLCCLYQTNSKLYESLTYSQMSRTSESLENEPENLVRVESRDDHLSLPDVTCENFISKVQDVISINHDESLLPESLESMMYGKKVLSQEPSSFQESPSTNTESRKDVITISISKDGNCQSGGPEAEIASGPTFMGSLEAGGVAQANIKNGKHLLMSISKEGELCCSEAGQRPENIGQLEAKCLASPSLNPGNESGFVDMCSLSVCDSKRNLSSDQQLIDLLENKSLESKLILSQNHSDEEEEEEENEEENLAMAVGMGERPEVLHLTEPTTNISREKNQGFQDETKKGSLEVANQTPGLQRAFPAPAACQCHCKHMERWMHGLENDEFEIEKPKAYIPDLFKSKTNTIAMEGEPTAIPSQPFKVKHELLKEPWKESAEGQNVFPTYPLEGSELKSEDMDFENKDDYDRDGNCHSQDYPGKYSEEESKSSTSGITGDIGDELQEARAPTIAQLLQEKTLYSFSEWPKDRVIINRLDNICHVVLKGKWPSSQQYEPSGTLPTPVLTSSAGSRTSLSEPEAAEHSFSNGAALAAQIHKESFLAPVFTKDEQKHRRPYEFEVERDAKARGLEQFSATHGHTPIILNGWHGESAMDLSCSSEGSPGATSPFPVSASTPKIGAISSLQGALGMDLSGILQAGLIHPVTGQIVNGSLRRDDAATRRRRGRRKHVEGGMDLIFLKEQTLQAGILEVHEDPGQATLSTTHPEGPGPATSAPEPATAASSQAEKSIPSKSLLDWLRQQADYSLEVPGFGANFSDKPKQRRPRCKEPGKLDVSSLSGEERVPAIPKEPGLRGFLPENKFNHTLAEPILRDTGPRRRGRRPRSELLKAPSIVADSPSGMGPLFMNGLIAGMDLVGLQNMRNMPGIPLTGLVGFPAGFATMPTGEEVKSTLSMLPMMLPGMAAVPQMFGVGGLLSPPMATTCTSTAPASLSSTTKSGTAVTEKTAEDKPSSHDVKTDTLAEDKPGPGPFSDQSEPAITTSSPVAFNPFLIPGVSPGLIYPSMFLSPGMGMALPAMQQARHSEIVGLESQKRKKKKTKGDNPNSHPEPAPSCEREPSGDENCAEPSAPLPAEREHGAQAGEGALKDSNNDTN

The values below come from the supplement of paper PMC10849652.

Compound in the assay: C1=CC=C(C=C1)[C@H](COC2=CC3=C(C=C2)NC(=O)N3)NC(=O)C4=CC=CN(C4=O)CC5=CC(=C(C=C5)F)F
Description: log2 fold change, soluble protein after heating vs DMSO (PISA); higher = thermal stabilisation; K562 cells, 10 uM, 30 min; active = over 0.2 and 3.5 SD of the protein, either way, in both replicates (recomputed). The procedure, abridged: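 Soluble protein was quantified by TMTpro 16plex LC-MS/MS after channel sums were equalised. It was obtained as the supernatant after 21,000xg for 90 min from pooled aliquots of K562 cells (2×10^6 cells/mL, 10 μM compound, 30 min) heated for 3 min across 48°C-58°C and extracted in PBS with 0.5% NP-40 at 4°C. Thermal stability values are relative to control samples and come from duplicates. They are given as log2 fold changes.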
As for CFAP298 (UniProt P57076), the log2 fold change was inactive: -0.032.

Consider CDKN1B (UniProt P46527), for which the log2 fold change was inactive: -0.009.

CHCHD4 isoform 2 (UniProt Q8N4Q1): the log2 fold change is inactive: 0.08.

Regarding CDCA3 (UniProt Q99618), the log2 fold change was inactive: 0.009.

With CHD4 isoform 2 (UniProt Q14839), the log2 fold change is inactive: -0.065.

CHAF1A (UniProt Q13111): the log2 fold change is inactive: 0.045.

With CHD3 isoform 3 (UniProt Q12873), the log2 fold change was inactive: -0.104.

On to CDK11B (UniProt P21127), for which the log2 fold change was inactive: -0.05.

As to CDS1 (UniProt Q92903), the log2 fold change is inactive: -0.029.

For the target CETN3 (UniProt O15182), the log2 fold change was inactive: 0.019.

In the case of CDC42EP1 (UniProt Q00587), the log2 fold change is inactive: -0.067.

For CDC42SE2 (UniProt Q9NRR3), the log2 fold change was inactive: -0.039.

In the case of CEP250 (UniProt Q9BV73), the log2 fold change was inactive: 0.124.

Turning to CELF2 isoform 3 (UniProt O95319), the log2 fold change is inactive: -0.005.

Turning to CGGBP1 (UniProt Q9UFW8), the log2 fold change was inactive: -0.055.

Take CENPP (UniProt Q6IPU0): the log2 fold change is inactive: 0.021.

Turning to CHMP2A (UniProt O43633), the log2 fold change was inactive: -0.011.

With CHD6 (UniProt Q8TD26), the log2 fold change is inactive: 0.047.

For the target CEP192 (UniProt Q8TEP8), the log2 fold change was inactive: -0.036.

As for CENPK (UniProt Q9BS16), the log2 fold change was inactive: 0.013.

With CEBPB (UniProt P17676), the log2 fold change was inactive: 0.09.

Take CDC42BPB (UniProt Q9Y5S2): the log2 fold change was inactive: -0.114.
